This assay has as its target T1, Nanos, full length, fused to a DNA-binding domain (two-hybrid bait) (Drosophila) (UniProt P25724).
T1 sequence: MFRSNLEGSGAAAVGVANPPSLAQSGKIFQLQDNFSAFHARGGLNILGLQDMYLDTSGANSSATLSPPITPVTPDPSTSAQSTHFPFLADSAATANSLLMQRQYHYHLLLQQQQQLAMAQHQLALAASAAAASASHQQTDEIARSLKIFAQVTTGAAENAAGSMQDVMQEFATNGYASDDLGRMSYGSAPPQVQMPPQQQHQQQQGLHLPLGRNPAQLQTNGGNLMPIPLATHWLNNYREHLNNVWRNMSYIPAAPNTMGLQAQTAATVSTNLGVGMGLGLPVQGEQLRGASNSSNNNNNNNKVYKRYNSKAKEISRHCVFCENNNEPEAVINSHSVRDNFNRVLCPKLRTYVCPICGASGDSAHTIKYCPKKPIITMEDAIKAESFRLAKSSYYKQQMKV
Kind of assay: two-hybrid; yeast PJ69-4A; DBD fusion as bait, AD fusion as prey; lacZ reporter, beta-galactosidase measured with Beta-Glo in arbitrary light units; three transformants each; control is the empty AD vector.

Results are given in words; binding and its absence hold for the method and conditions named. Some results given as binding are weak or reduced against the parent protein; the word gives no strength. Sequences can lack the tags named with a protein.

B1: Cup fused to a transcriptional activation domain (two-hybrid prey) (protein, UniProt Q9VMA3 1-1117)
chain: MQMAEAEQENGAGALKIATNAGATDRPAHQQLPLPVEDQQDEVLTPAEKGKFEYPPPPPPPTPVQAPLATKATALNASQEHDDDEANSEKWEDPCAPPPPPPLPTSAFLATGLGYLKLPAFKLKDALEKAITKLEANKRTLKASPESSRSIKNKNVVALEMLPRRSNPETIGDGSMLASTSTAVMLQTKKPAVIVEMERRCKIINLLAKQNQILESISGEAIPMHGPSKHLHEDEGLTLQVLSARASTPYTQPSSMLSCTAVSCDLEHDSPRKQVASKEAVPEQQSSQVQQKRPPSTGIHKPGSLRAPKAVRPTTAPVVSSKPVKSYTRSRLMDIRNGMFNALMHRSKESFVMPRIATCDDIELEGRLRRMNIWRTSDGTRFRTRSTTANLNMNNNNNNECMPAFFKNKNKPNLISDESIIQSQPPQPQTEFQDPAIVNQRRIGSGRLNHSKWGYNDEDYHSYHNGKSQHMEEVNSKNSKNMTVLQFFDNGEISSQPQRRPNTPVMGMSINRSENDTLHSNESSEDLSRANENYVKRVMSGFLVVSKPKSRDVEDRHHRRYRNQNEEPEWFSCGPTSRLDTIELCGFDEDEEKMLKEGNKNHGLGETERETSKQKMDHKYKWTHAEPMGRSKYMPKHDTNNNHNVENMNNVMATEHQQQKEEKRPGSGRSFQFDKFNQSQQNYESSSYVNHQQPPQTQPQQMQQQSNTNTNNSKFMSFFANEGNSSSSSLNEFFKQAINQGHGNNPEQPKSLGHIGQMPSVDQLEAKWRRNSLNNVGETANKQTDNFQKLIGSLSSAKPQSQAVGYDAISNFIMQQQQYQQQQQKQHLIIQQQQQHTAFLASLQLKAILGRADTQLLLLRLTKGEISKHGLLVQLANPRLTDMDREAITAVLQFTNTQQQQQQHKQQLDMLSSTVIASQLQNLHNLAIVQQTLAARQQPQHNPQTQAPHQLSQEDLQAHANVIMRNAVMKRKIEEQTSKLINGGAKHQAQQQYLNRGQQRQARPDANSNALLHALISGGGNNHASGYPMNGQPQKHHSNLRFGDNQNFQSFESNQPHFATQYKQQYQQSQQQHPHQQPQQLNSLHQNNAGAVNSFNKAQMQAQSAISMLPNSGDEFH
As to B1, the binding result is listed as “binds”.

The values are drawn from paper PMC11501031.
